Laboratory results as given in article PMC7615647, “Visualization of direct and diffusion-assisted RAD51 nucleation by full-length human BRCA2 protein” (Molecular cell, 2023).
Construct, isoform or probe ends are uncertain for at least one entry. For some of these results: The comparison behind a weaker result is the experiment's own reference, which may not be listed here. At least one verdict was read from the data and is not stated in words by the source.

Chains of the proteins cited; added tags and fusions are not shown. A line that says so, or that is headed by a name, gives the form on record, which may keep a tag or linker. Residues count along the entry.
UniProt P51587, 966-3418: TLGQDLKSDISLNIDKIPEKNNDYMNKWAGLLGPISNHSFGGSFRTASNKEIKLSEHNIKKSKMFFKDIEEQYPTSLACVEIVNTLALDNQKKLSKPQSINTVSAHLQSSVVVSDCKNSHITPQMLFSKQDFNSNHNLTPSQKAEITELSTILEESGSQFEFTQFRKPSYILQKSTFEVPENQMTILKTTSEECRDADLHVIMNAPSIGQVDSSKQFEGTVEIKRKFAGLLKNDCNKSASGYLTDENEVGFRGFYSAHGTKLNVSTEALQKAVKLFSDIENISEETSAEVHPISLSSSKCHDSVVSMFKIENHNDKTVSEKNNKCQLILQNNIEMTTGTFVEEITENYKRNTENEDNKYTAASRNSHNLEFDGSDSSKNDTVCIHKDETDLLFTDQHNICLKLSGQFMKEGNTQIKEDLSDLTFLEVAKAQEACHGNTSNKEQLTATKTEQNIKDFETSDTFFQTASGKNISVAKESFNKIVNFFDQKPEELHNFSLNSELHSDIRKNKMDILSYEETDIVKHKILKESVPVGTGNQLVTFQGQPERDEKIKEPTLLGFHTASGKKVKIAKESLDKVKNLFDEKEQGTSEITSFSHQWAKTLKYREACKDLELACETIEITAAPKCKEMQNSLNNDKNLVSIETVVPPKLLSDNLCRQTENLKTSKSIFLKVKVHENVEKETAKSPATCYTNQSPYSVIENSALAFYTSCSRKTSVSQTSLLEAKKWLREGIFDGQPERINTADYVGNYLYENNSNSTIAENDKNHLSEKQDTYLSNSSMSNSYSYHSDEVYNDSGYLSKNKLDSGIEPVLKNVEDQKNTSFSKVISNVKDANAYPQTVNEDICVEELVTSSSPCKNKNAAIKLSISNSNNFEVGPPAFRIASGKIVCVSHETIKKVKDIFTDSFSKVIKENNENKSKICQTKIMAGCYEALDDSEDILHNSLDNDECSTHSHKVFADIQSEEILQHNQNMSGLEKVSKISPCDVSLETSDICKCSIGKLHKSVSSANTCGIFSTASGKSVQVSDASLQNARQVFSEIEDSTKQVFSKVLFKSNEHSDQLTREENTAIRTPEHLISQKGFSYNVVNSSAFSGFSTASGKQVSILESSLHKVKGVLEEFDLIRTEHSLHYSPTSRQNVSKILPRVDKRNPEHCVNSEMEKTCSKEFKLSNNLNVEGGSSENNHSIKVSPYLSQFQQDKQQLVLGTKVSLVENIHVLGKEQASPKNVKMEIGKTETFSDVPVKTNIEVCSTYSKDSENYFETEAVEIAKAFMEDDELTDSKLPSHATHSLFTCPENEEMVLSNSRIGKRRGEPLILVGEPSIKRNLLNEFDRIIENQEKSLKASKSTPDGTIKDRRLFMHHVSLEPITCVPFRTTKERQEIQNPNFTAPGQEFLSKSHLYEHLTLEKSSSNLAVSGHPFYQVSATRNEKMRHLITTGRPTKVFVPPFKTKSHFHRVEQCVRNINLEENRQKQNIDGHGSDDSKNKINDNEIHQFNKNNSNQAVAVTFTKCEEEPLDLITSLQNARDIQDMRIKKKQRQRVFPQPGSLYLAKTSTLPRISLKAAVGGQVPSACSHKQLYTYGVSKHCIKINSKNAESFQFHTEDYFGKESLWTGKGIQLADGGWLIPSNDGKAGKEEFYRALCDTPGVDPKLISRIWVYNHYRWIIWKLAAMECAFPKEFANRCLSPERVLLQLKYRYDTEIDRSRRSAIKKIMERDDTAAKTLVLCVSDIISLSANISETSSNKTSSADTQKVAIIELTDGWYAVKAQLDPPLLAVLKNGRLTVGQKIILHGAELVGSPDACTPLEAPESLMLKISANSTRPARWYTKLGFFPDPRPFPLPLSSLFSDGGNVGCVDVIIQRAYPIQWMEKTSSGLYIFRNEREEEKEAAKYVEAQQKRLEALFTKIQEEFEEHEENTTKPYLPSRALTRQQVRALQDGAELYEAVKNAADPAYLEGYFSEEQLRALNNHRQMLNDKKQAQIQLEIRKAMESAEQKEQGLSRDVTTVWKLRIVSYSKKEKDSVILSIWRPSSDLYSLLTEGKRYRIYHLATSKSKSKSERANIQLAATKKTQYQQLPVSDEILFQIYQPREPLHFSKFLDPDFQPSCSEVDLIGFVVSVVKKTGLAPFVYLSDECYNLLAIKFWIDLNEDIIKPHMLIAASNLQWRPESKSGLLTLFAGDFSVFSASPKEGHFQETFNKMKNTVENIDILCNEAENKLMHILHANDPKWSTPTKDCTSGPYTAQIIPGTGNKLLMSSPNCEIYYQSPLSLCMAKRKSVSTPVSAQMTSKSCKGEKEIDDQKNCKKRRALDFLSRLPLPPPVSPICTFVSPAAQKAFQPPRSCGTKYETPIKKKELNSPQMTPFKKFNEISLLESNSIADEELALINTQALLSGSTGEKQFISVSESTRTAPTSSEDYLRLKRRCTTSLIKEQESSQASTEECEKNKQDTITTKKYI
UniProt P51587, whole entry: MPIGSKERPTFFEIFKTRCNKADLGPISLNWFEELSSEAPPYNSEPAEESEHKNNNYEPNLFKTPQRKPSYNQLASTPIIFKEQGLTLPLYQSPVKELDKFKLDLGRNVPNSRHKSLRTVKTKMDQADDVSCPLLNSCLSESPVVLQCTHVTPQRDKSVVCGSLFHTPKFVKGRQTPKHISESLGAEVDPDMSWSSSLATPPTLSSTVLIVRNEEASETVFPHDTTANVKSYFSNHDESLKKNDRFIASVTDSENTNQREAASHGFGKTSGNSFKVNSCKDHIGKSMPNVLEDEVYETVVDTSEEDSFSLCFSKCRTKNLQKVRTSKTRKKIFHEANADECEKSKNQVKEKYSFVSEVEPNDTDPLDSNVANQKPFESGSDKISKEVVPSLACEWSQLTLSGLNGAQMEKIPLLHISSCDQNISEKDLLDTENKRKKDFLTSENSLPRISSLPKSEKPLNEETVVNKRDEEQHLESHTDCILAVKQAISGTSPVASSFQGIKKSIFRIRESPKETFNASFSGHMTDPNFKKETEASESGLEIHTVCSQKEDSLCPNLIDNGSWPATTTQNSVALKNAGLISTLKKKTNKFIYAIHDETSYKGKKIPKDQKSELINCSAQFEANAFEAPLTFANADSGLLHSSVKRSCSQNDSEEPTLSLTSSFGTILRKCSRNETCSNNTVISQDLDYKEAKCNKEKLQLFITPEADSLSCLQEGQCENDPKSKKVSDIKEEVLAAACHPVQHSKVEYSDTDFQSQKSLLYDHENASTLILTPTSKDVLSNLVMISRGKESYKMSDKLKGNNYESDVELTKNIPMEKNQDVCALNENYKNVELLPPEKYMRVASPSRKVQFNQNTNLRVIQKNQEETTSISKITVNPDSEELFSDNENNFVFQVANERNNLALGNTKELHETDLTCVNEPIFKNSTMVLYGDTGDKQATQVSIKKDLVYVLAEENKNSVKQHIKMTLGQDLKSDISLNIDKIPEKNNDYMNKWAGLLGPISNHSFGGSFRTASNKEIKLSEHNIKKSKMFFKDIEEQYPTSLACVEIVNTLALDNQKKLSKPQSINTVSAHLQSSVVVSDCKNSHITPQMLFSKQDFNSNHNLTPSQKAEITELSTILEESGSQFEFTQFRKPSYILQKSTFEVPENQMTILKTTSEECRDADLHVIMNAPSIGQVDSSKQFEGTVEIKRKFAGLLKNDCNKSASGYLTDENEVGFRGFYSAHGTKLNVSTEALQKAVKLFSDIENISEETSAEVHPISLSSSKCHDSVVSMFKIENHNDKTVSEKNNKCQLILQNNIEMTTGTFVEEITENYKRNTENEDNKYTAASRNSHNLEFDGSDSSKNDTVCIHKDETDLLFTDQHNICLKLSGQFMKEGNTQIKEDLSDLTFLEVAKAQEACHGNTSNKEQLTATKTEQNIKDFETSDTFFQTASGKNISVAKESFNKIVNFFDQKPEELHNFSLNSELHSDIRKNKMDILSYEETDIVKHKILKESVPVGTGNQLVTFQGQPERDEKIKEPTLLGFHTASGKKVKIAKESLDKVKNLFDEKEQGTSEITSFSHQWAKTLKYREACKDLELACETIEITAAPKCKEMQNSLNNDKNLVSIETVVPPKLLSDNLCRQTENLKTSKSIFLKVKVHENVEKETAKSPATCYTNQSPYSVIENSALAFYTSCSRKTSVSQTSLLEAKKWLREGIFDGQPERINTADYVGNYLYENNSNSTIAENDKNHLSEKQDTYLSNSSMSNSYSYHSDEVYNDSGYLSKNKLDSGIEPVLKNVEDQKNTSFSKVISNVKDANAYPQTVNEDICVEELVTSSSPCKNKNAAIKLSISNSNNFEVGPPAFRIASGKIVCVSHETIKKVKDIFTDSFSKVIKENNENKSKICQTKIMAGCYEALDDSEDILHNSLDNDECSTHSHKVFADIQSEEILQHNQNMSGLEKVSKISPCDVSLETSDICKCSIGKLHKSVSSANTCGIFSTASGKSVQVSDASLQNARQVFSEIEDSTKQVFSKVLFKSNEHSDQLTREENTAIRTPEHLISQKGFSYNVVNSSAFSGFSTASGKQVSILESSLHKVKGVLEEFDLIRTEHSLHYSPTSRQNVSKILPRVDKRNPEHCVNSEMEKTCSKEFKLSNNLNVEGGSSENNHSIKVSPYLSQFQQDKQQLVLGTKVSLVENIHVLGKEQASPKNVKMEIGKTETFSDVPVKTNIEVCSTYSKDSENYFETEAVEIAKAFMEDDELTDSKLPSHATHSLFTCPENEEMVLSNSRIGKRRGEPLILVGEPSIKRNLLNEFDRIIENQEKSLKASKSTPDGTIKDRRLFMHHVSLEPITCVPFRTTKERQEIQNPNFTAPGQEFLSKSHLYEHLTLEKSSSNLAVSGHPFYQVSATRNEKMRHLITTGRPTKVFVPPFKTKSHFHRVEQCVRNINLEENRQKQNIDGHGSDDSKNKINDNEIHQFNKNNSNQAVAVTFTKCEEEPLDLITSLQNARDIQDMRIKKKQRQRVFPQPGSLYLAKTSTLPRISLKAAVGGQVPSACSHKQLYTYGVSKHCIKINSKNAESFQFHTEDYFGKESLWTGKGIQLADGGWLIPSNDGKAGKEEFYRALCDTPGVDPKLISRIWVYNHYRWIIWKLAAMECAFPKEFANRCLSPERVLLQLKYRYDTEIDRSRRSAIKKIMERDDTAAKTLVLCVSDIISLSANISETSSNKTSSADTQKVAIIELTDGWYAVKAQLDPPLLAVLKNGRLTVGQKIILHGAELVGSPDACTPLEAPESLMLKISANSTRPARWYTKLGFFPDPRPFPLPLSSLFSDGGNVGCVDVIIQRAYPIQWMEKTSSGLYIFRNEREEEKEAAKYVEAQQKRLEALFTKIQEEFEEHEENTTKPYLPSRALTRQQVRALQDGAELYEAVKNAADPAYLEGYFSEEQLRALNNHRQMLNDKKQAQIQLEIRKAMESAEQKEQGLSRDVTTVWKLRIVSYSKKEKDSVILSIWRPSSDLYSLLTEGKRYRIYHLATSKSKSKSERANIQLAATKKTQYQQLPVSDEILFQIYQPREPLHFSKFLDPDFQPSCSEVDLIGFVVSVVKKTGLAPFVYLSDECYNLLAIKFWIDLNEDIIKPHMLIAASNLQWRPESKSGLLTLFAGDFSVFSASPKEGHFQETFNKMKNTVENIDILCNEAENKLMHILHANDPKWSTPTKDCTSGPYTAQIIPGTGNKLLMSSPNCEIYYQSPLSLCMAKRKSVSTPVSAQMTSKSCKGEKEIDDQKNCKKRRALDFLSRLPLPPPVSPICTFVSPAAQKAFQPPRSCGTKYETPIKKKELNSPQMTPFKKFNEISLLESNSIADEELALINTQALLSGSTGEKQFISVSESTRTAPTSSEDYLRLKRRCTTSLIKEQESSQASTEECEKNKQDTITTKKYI
BRCA2-C (Homo sapiens), one chain, as listed by the source, chain 3 of 3: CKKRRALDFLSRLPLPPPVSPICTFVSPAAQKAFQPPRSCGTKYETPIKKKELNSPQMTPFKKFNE
BRCA2-C (Homo sapiens), one chain, as listed by the source, chain 1 of 3: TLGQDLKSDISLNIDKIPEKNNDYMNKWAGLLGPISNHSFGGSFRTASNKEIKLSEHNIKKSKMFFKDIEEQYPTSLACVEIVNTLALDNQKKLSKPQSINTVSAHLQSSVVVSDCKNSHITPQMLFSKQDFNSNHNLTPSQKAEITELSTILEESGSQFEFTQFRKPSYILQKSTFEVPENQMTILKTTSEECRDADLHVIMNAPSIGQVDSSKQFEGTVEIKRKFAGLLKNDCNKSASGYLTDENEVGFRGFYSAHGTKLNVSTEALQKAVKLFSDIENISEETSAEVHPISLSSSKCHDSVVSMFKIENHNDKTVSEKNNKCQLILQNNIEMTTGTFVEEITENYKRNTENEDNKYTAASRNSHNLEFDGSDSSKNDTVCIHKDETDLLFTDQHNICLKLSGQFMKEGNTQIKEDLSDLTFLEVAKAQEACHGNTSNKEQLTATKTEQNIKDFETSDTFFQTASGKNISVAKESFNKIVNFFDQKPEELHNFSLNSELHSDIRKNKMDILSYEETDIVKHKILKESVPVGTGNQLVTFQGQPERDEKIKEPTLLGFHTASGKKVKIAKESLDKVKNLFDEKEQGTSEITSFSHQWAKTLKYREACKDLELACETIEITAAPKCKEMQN

How the values were obtained:
Assay in all cases: EMSA
BRCA2-C2 (Homo sapiens) = BRCA2-C2 (Homo sapiens) (UniProt P51587); settings: affinity correlates with RAD51 nucleation ability; EMSA: 4 nM Cy5-DNA, 20 mM HEPES pH 7.5, 1 mM MgCl2, 1 mM TCEP, 100 mM KCl, 24 C, 5 min; recombinant protein; residues 966-3418; protein details: C-terminal eGFP, twin strep; label: 5'-Cy5; single-stranded DNA
[1] = biological target: BRCA2 full-length (Homo sapiens) (UniProt P51587); settings: eGFP status of full-length protein not stated; EMSA: 4 nM Cy5-DNA, 20 mM HEPES pH 7.5, 1 mM MgCl2, 1 mM TCEP, 100 mM KCl, 24 C, 5 min; recombinant protein; residues 1-3418; protein details: C-terminal Flag3; label: 5'-Cy5; single-stranded DNA
BRCA2-C (Homo sapiens) = settings: affinity correlates with RAD51 nucleation ability; EMSA: 4 nM Cy5-DNA, 20 mM HEPES pH 7.5, 1 mM MgCl2, 1 mM TCEP, 100 mM KCl, 24 C, 5 min; recombinant protein; protein details: C-terminal eGFP, twin strep; label: 5'-Cy5; single-stranded DNA
BRCA2-N (Homo sapiens) = BRCA2-N (Homo sapiens) (UniProt P51587); settings: affinity correlates with RAD51 nucleation ability; EMSA: 4 nM Cy5-DNA, 20 mM HEPES pH 7.5, 1 mM MgCl2, 1 mM TCEP, 100 mM KCl, 24 C, 5 min; recombinant protein; residues 1-2142; protein details: C-terminal eGFP, twin strep; label: 5'-Cy5; single-stranded DNA

CCAAGAAGCTGTTCAGAATCAGAATGAGCCGCAACTTCGGGATGAAAATGCTCACAATGACAAATCTGTCCACGGAGTGCTTAATCCAACTTACCAAGCT [100mer ssDNA]
binding result (BRCA2-C2 (Homo sapiens)): binds
binding result [1]: binds
binding result (BRCA2-C (Homo sapiens)): binds more weakly
binding result (BRCA2-N (Homo sapiens)): binds more weakly
